Measurements as given in paper PMC8376021.
Read-outs that look alike come from different tables or passages of the source. These are yes or no findings as the source states them, for the method shown. In cells and extracts the contact can be indirect. For part of these data: Binding can be weak; no strength is given. For part of these data: Where a sequence is shown, tags or fusion partners need not be part of it.

Amino acid sequences for entries named in this document (tags omitted). A change or cut given only in a name is not applied to a line headed by its entry. Chains listed by the source or under a name are the forms on record and can include a tag or linker.
Myc-tagged human PML, isoform VI (P29590-4, form named): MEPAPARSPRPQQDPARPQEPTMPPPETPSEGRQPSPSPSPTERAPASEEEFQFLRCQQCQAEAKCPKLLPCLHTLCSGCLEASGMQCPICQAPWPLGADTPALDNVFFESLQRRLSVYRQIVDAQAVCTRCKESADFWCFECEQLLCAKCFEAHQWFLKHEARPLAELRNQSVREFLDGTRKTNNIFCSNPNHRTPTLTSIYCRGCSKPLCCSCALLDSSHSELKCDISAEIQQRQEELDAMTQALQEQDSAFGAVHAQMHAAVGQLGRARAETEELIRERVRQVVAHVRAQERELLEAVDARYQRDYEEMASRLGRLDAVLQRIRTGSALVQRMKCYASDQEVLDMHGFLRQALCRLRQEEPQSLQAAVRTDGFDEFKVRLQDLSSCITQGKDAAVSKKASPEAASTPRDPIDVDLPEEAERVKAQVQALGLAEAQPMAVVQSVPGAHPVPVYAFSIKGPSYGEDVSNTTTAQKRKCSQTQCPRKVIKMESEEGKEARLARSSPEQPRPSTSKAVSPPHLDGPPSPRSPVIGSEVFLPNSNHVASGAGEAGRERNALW

B1: Myc-tagged full-length rat PML (protein, UniProt F1M589 1-934)
chain: MNSAPVGGPPEKRPNPEIETEPGSTQKAPAPSGSLCQQLDPALIPTPTMPPPEEPSEDHEHSQSPAEQAIKEEFQFLRCPGCQTQAKCPKLLPCLHTLCSGCLEAPGLQCPICQAPGSANANAEALDNVFFESLQRRLAVFRQIVDAQAACTRCKELADFWCFECEQLMCGKCFDAHQWYLKHEARPLAELRDNSVREFLDSTRKSNIFCSNTNHRTPAQTNIYCRGCAKPLCCECALLDRNHSHLQCEIGKEIQQLHEELGTMTQALEEQGRTFDSAHAQMHSAIGQLDDARSDTEKQIRARVRQVIEHVQAQERELLEAVNVRYQRDYQEIAGQLGHLEAVLQRIRTGGALVKRMKLYASEQEVLDMHGFLRKALCRLRQEEPQNHKVQLRTSGFEEFKLCLQDLVSFITQRTDVAVAGRASPEAASTHPEAASAQPEAASTHPEAASAQPEAASAHPESASTPGNSTDLEQPKEVQRAQAQAMELSKTQPVAMVKSVPGAHPVPVYAFSMQGPTYREEASQTVSPMKRKCCHIDCCRKIIKMESTDENEDRLSTSSPEQPRPSTSKAISPPHPDGTSSTESTIPEKETPLPNNNHVASDAGETEERIVVISSSEDSDAENLPSHELDDSSSESSSIQLEGPNSLKALDESLAEPHLEDRTLVFFDLKIDNETQKISQLAAVNRESKFRVLIQPEAFSVYSKAVSLESGLQHFLSFLNSMHRPLLACPRLWGPGLPIFFQALNDINKLWEFQDAISGFLAVLPLIQERIPSASSFKLRNLAKTYLARNMSERSALAAVLAMRDLCCLLEVSPGLQLAQHIYSFSSLQCFASLQPLIQAQVLPQPEARLLALHNVSFLELLTAYRSNRQEGLKKYVHYLSLQTTPSSASTQIAQFLQALSAYMDGQLEGHIPAGAEGTALSLSGRAENKGCLA

Assays:
Assay in all cases: co-IP; HEK293T co-transfected with FLAG-tagged IE1 variants and Myc-tagged PML variants; lysis in CoIP buffer (50 mM Tris-HCl pH 8.0, 150 mM NaCl, 5 mM EDTA, 0.5% NP-40); IP with anti-FLAG M2 on protein-A-sepharose, 2 h at 4°C; co-precipitated PML detected by Western blot
[1] = target: FLAG-tagged ratIE1 1-392 (N-terminally extended ratIE1 core) (rat cytomegalovirus) (UniProt K7XWE8)
[2] = target: FLAG-tagged ratIE1 (rat cytomegalovirus) (UniProt K7XWE8)
[3] = target: FLAG-tagged ratIE1 1-392 (N-terminally extended ratIE1 core) (rat cytomegalovirus) (UniProt K7XWE8); remark: listed apart in the source

Row | Molecule | binding [1] | binding [2] | binding [3]
1 | Myc-tagged human PML, isoform VI (from UniProt P29590-4 1-560) | no binding |  | 
2 | B1 |  | binds | binds
